{"sequences": {"note": "Chains of the proteins cited; added tags and fusions are not shown. Lines headed by an entry give the natural chain unless they say otherwise; changes in a name come on top.", "UniProt P62141": "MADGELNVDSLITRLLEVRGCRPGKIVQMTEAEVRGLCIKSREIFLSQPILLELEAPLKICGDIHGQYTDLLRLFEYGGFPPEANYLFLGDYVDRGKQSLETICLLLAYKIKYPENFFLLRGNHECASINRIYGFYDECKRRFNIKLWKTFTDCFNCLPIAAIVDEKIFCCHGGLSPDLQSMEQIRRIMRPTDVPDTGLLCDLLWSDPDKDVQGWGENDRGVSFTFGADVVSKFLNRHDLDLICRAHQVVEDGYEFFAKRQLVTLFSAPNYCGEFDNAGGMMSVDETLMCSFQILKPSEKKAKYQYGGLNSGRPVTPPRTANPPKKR"}, "source": "paper PMC7809799", "about": "“A microtubule‐LUZP1 association around tight junction promotes epithelial cell apical constriction” (The EMBO Journal, 2020)", "molecules": {"B1": {"name": "ZO‐2 (co‐immunoprecipitation with LUZP1, Fig EV2G) (protein, UniProt Q9Z0U1 1-1167)", "chain": "MEEVIWEQYTVTLQKDSKRGFGIAVSGGRDNPHFENGETSIVISDVLPGGPADGLLQENDRVVMVNGTPMEDVLHSFAVQQLRKSGKIAAIVVKRPRKVQVAPLQGSPPLSHDDRGFEVIEEFDGRSFRSGYSERSRHSSHDMLSHSWEGNRERGRPHQRTQSRERERSRGRSLERGLDQEDYGRSRERSRGRSLERGLDRDFVSRDHSRGRSIDRDYDRDYERSYHEAYEPDYGGGYSPSYDRRAHPETRYERSRSREHLRSRSPSPESRSRHEHKGQHDPDRPIGVLLTKSKANEEYGLRLGSQIFIKEMTRTGLATKDGNLHEGDIILKINGTVTENMSLTDARKLIEKSRGKLQLVVLRDSKQTLINIPALNDSDSEVEDISEIESNRSFSPEERRQQYSDQDYHSSTEKLKERPSSREETSGRLSRMGATPTPFKSTGDITAAGVTEASREPRYQEEGPVPQPRTAPRVFLRPSPEDEAIYGPNTKMVRFKKGDSVGLRLAGGNDVGIFVAGIQEGTSAEQEGLQEGDQILKVNTQDFRGLVREDAVLYLLEIPKGETVTILAQSRADVYRDILACGRGDSFFIRSHFECEKETPQSLAFTRGEVFRVVDTLYDGKLGHWLAVRIGNELEKGLIPNKSRAEQMASVQNAQRENAGDRADFWRMRGQRSSGGVKKNLRKSREDLAAAVSVSTKFPAYEKVLLREAGFKRPVVLFGPIADIAMERLATELPDLFQTAKTEPKDAGSEKSSGVVRLNTVRQIIEQDKHALLDVTPKAVDLLNYTQWFPIVIFFNPDSRQGVKTIRQRLSPTSNKSSRKLFDQANKLKKTCSHLFTATINVNSANDGWFGSLKDSIQQQQNEAVWVSEGKMEGMDDDAEDRMSYLTAMGADYLSCDSRLISDFEDTDGEGGAYTDNELEEPAEEPLVSSITRSSEPVQHEENIRKSSPEPRAQMRRAASRDQLRDASPPPAFKPEPPKARSQNREDSFDYSKSNLPATAGSEIPGGSTKGYPPPIAAKPAFGRPILKPSTPVPMPESEEVGESTEEQEDAPRSVLGRVKIFEKMDHKAKLQRMQELQEAQNARIEIAQKHPDIYAVPIKAPKPDAGLPPHMSSRPPEPQKAPSRLYQDTRGSYGSDPEEEEYRQQLAAHSKRGYYSQPSRYRDTEL"}, "B2": {"name": "Merlin (protein, UniProt P46662 1-596)", "chain": "MAGAIASRMSFSSLKRKQPKTFTVRIVTMDAEMEFNCEMKWKGKDLFDLVCRTLGLRETWFFGLQYTIKDTVAWLKMDKKVLDHDVSKEEPVTFHFLAKFYPENAEEELVQEITQHLFFLQVKKQILDEKVYCPPEASVLLASYAVQAKYGDYDPSVHKRGFLAQEELLPKRVINLYQMTPEMWEERITAWYAEHRGRARDEAEMEYLKIAQDLEMYGVNYFTIRNKKGTELLLGVDALGLHIYDPENRLTPKISFPWNEIRNISYSDKEFTIKPLDKKIDVFKFNSSKLRVNKLILQLCIGNHDLFMRRRKADSLEVQQMKAQAREEKARKQMERQRLAREKQMREEAERTRDELERRLLQMKEEATMANEALMRSEETADLLAEKAQITEEEAKLLAQKAAEAEQEMQRIKATAIRTEEEKRLMEQKVLEAEVLALKMAEESERRAKEADQLKQDLQEAREAERRAKQKLLEIATKPTYPPMNPIPPPLPPDIPSFDIIADSLSFDFKDTDMKRLSMEIEKEKVEYMEKSKHLQEQLNELKTEIEALKLKERETALDVLHSESSDRGGPSSKHNTIKKLTLQSAKSRVAFFEEL"}}, "key": {"GFP‐LUZP1 (mouse)": {"biological_target": "T1, GFP‐LUZP1 (mouse) (UniProt Q8R4U7)", "T1 sequence": "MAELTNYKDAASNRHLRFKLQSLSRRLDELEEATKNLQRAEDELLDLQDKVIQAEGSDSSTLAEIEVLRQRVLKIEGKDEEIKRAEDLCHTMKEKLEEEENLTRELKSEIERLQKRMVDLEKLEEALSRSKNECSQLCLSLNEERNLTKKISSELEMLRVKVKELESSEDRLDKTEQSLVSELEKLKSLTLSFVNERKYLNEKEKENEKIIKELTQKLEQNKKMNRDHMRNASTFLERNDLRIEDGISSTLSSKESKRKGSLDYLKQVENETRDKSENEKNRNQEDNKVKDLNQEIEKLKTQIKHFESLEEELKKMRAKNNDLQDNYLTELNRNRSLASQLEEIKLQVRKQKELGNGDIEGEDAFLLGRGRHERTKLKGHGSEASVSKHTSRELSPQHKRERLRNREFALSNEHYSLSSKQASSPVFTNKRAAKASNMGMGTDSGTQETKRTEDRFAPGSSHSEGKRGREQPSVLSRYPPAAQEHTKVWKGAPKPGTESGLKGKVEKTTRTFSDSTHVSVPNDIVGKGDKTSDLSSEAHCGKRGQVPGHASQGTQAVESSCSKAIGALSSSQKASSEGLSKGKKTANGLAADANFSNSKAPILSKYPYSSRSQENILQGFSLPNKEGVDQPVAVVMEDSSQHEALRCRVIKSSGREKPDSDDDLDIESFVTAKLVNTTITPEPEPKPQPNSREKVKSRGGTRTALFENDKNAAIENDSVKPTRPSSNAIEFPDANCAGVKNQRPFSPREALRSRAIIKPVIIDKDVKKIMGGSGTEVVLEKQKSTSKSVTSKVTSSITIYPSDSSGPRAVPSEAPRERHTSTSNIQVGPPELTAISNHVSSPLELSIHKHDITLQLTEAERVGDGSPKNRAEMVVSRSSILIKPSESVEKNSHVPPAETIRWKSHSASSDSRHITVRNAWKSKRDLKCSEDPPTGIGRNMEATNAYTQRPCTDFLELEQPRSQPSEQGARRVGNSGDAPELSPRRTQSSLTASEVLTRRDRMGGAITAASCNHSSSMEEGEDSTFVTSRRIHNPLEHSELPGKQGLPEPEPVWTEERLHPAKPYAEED", "test": "co-IP; HEK‐293 transiently co‐transfected with two tagged proteins; RIPA or Hypo buffer lysate adjusted to 150 mM NaCl; protein A‐Sepharose with mouse anti‐GFP or anti‐HA antibodies, RT 120 min; immunoblotting"}, "[1]": {"biological_target": "T2, LUZP1 (tagged, co‐immunoprecipitation with ZO‐1 and ZO‐2) (mouse) (UniProt Q8R4U7)", "T2 sequence": "T1 sequence", "test": "co-IP; HEK‐293 transiently co‐transfected with two tagged proteins; RIPA or Hypo buffer lysate adjusted to 150 mM NaCl; protein A‐Sepharose with mouse anti‐GFP or anti‐HA antibodies, RT 120 min; immunoblotting"}, "[2]": {"biological_target": "T3, LUZP1 (pull‐down assay with Merlin) (mouse) (UniProt Q8R4U7)", "T3 sequence": "T1 sequence", "test": "pull-down; pull‐down assays between Merlin and LUZP1, immunoblotting; not described in the methods"}}, "note": "These are yes or no findings as the source states them, for the method shown. In cells and extracts the contact can be indirect. Some binding calls cover weakened binding; strength is not graded here. For part of these data: Where a sequence is shown, tags or fusion partners need not be part of it."}
{"molecule": "HA‐PP1c β/δ (from UniProt P62141 1-327) (enzyme)", "values": [{"measurement": "binding", "setting": "GFP‐LUZP1 (mouse)", "result": "binds"}]}
{"molecule": "B1", "values": [{"measurement": "binding", "setting": "[1]", "result": "binds"}]}
{"molecule": "B2", "values": [{"measurement": "binding", "setting": "[2]", "result": "no binding"}]}
